## Library screen at single concentrations

Sequences of proteins named here, by UniProt entry; tags and fusion partners are left off. Residues count along the entry.
UniProt I6X8D2, whole entry: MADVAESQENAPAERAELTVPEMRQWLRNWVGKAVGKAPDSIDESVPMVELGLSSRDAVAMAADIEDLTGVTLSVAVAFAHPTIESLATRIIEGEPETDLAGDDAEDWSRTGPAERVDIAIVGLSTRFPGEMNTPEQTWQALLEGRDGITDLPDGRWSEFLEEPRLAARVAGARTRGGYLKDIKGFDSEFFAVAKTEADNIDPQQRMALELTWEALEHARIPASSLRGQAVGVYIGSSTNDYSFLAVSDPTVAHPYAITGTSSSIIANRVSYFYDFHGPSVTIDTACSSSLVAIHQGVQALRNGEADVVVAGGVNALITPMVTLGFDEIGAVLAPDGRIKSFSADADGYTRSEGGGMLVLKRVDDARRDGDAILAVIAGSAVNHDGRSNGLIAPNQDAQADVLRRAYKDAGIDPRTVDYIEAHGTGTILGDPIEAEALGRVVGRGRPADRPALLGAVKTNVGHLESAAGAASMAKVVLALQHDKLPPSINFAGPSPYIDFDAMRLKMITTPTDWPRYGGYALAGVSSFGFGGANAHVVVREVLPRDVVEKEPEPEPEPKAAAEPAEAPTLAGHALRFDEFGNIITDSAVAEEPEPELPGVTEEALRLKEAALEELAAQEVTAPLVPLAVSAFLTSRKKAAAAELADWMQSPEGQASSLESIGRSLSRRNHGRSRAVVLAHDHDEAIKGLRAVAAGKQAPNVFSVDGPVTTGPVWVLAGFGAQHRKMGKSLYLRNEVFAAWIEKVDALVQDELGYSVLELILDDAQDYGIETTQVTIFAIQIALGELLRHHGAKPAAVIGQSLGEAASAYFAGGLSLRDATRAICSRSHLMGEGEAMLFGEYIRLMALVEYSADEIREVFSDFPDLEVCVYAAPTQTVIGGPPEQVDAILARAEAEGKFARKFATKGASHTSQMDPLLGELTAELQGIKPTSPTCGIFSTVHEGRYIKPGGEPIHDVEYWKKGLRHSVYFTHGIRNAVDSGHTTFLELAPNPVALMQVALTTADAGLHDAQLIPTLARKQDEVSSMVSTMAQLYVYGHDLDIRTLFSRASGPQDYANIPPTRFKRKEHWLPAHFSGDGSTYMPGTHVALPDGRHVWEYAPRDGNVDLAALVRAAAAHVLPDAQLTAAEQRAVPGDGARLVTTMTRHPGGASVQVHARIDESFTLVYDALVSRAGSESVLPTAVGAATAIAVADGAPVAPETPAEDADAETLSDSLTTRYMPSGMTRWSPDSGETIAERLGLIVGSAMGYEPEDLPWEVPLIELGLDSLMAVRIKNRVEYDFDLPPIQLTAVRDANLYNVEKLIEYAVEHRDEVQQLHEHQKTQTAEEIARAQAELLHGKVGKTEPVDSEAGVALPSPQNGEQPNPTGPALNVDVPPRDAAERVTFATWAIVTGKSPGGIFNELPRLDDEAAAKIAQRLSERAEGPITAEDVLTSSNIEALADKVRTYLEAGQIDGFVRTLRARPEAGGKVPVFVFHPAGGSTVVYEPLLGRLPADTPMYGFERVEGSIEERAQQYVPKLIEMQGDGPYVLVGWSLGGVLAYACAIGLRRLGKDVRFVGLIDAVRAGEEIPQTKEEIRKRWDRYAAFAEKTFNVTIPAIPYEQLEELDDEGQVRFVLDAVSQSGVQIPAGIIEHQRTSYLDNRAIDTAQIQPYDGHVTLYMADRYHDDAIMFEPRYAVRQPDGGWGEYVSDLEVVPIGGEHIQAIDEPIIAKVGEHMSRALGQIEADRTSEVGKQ
UniProt P9WNZ1, whole entry: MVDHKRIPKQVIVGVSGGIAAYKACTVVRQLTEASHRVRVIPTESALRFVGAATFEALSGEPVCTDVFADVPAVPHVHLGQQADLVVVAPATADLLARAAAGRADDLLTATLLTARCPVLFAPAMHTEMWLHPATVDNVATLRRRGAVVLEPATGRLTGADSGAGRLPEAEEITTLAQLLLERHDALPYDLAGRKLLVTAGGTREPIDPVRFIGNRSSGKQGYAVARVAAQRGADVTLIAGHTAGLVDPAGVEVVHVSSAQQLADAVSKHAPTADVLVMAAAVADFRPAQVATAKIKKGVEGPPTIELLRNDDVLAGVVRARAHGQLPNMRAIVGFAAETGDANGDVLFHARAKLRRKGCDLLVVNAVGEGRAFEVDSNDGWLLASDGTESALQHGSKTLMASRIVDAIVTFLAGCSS
UniProt Q8IDJ8, 1-583: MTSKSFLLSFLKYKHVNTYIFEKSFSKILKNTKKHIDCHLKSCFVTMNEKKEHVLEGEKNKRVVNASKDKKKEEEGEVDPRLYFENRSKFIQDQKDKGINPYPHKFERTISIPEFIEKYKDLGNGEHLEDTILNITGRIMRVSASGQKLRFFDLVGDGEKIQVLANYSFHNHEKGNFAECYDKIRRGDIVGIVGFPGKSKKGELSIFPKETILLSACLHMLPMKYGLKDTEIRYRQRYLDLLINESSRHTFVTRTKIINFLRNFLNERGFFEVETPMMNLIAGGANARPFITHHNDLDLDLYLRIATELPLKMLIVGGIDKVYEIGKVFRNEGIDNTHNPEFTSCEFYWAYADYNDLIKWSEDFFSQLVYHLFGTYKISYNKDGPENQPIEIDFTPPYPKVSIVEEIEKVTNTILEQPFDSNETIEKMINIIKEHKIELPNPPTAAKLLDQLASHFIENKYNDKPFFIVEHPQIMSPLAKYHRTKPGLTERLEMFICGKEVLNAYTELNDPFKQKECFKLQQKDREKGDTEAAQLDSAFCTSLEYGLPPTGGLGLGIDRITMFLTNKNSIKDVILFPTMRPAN
UniProt Q4DA54, 1-478: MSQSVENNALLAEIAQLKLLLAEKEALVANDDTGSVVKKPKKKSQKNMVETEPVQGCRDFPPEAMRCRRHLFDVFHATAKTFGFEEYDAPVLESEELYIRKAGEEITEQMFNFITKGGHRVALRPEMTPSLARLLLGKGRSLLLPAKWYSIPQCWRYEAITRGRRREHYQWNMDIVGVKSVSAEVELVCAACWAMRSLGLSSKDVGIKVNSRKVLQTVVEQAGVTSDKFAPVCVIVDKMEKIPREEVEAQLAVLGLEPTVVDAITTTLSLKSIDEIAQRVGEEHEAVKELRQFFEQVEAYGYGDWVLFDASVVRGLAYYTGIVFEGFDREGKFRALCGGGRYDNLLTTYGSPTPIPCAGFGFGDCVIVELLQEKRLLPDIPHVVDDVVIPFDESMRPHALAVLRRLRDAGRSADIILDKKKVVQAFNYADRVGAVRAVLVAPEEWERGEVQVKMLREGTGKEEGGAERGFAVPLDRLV

From ChEMBL document CHEMBL3988442, “University of Dundee, Small-Polar-MMV Screening Library” (2021).

A: 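Polyketide synthase Pks13, Mycobacterium tuberculosis (UniProt I6X8D2). Enzyme assay of the thioesterase domain of polyketide synthase 13; the read-out is not stated. Concentration: 30 µM. Higher reads as stronger inhibition (inferred from which compounds were picked for retests). Of about 67,000 compounds tested this way, about 300 (0.46%) reached 50% or more in at least one test.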
B: 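Enzyme assay of CoaBC with a phosphate dye (Biomol Green) read at 650 nm. Target: Coenzyme A biosynthesis protein CoaBC, Mycobacterium tuberculosis (UniProt P9WNZ1). Tested at 30 µM. Higher reads as stronger inhibition, judged from the few compounds that gave an IC50. Most strong results did not repeat in a second test. Of about 67,000 compounds tested this way, about 40 (0.06%) reached 50% or more in at least one test.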
C: 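Lysine-tRNA ligase, Plasmodium falciparum 3D7 (UniProt Q8IDJ8). Enzyme assay of the cytosolic lysyl-tRNA synthetase in 384-well plates, read by luminescence. Tested at 30 µM. Higher reads as stronger inhibition, judged from the few compounds that gave an IC50. Of about 69,000 compounds tested this way, about 49 (0.071%) reached 50% or more in at least one test.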
D: 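Histidine-tRNA ligase, Trypanosoma cruzi CL Brener (UniProt Q4DA54). Enzyme assay of histidyl-tRNA synthetase; the read-out is not stated. Tested at 30 µM. Direction is inferred from retests: higher values go with stronger inhibition. About 69,000 compounds were tested under these conditions; 0.045% (about 31) showed 50% or more at least once.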

Results are given as percent effect.
The controls that fix the scale are not given in the record; negative values are as filed.
This is an unselected part of the compounds tested.

* Cc1nn(C(C)C)c(C)c1S(=O)(=O)Nc1ccc(C(=O)O)cc1 : A: -4.789%; C: 5.17%; D: 9.091%
* CN(C)C(=O)CCCn1ccc(NC(=O)NCc2cccc(F)c2)n1 : A: -0.5279%; B: 1.339%; C: 5.035%; D: 0.5525%
* Cc1ccc(C(C(=O)N2CCC(Cc3noc(C)n3)CC2)N(C)C)cc1 (centres undefined) : A: -17.33%; B: -14.71%; C: 4.781%; D: 3.004%
* Cc1ccc(CN(C)C(C(=O)O)c2ccc3c(c2)OCO3)o1 (centres undefined) : A: -5.247%; B: 0.4938%; C: 2.981%; D: 5.473%
* c1ccc(CN2Cc3nccn3CC(Cn3cncn3)C2)nc1 (centres undefined) : B: 8.885%; C: 4.188%; D: 9.045%
* CC(C)C1CN(c2ncccn2)CCC(=O)N1CC1CC1 (centres undefined) : A: -47.8%; B: 3.981%; C: -4.915%; D: 0.5025%
* CC(C)N1CCN(C(=O)c2ccc(Cn3ccccc3=O)o2)CC1 : A: -5.452%; B: 9.34%; C: -0.9874%; D: 6.122%
* CCCc1cncnc1N1CCC2(CCC(=O)N(C3CCCC3)C2)CC1 : A: -9.813%; B: 11.36%; C: 2.549%; D: 3.004%
* Cc1ccc(Cc2cnc(C3CCNCC3)cn2)cc1 : A: -6.267%; B: 0.2451%; C: 8.578%; D: 6.383%
* CCC(CC)NC(=O)c1cccnc1N1CCCC1c1ccccn1 (centres undefined) : A: -25.47%; B: 1.214%; C: 1.109%; D: -4.545%
* CN(C)[C@@H]1CN(C(=O)Cc2ccccc2)[C@@H]2CCCO[C@H]12 : A: -46.87%; B: -2.475%; C: -1.081%; D: -1.105%
* C[C@H](N)Cn1nc(-c2cccs2)oc1=O : A: -3.789%; B: 2.107%; C: 0.09888%; D: 2.247%
* CC(C)(C)CN(CCC#N)C(=O)Nc1cccc(N2CCNC2=O)c1 : A: -22.96%; B: 0.9732%; C: 1.293%; D: 11.52%
* Cc1cccc(CN2CCS(=O)(=O)[C@@H]3CCN(S(C)(=O)=O)CC[C@@H]32)n1 : A: 10.25%; B: -3.171%; C: -2.795%; D: 5.376%
* COc1nccc(N2CC[C@H](CO)[C@@H](O)C2)c1C#N : A: -3.011%; B: 6.163%; C: 5.303%; D: 2.646%
* COCCOCC(=O)NC(C#N)c1c(F)cccc1Cl (centres undefined) : A: 7.242%; B: -0.9926%; C: 1.628%; D: 1.734%
* c1cc(CN2CCCn3nnc(COCC4CC4)c3C2)ccn1 : A: -3.512%; B: 3.832%; C: 4.771%; D: 5.102%

Repeated from the top, 2 entries:

For Cc1nn(C(C)C)c(C)c1S(=O)(=O)Nc1ccc(C(=O)O)cc1 the result was A: -4.789%; C: 5.17%; D: 9.091%.
For CN(C)C(=O)CCCn1ccc(NC(=O)NCc2cccc(F)c2)n1 the result was A: -0.5279%; B: 1.339%; C: 5.035%; D: 0.5525%.